For at least one compound, name, drawing or mass did not settle the structure.
Columns and labels:
distraction osteogenesis = distraction osteogenesis in rabbits; cited from earlier work
[1] = system: traumatic osteonecrosis (femoral head); test: Model of traumatic osteonecrosis of the femoral head in rats, six weeks after operation; type: in vivo, Wistar rats
Description: A model of traumatic osteonecrosis was utilised in 24 female 14-week-old Wistar rats. The animals were followed for six weeks after an operation designed to disrupt the blood supply to the femoral head. The six week time point was chosen as a time point when femoral head collapse is known to have occurred in this model ^1. Animal ethics approval was received.
Rats were randomised in lots of 4 into three groups according to the schedule below. Controls receive only saline (S) injections via a subcutaneous route. Post-treated animals received saline only pre-operatively, but zoledronic acid (ZA) (Novartis) 0.1 mg/kg, from commercial stock, was administered by subcutaneous injection post-operatively at 1 and 4 weeks. Pre and Post-treated animals received zoledronic acid 0.1 mg/kg at all three time points.
The same operation was performed on each rat at time zero. All animals were weighed accurately before anaesthesia. Animals were kept warm during surgery and recovery. Anaesthesia was induced with a mixture of Ketamine 75 mg/kg and Xylazine 10 mg/kg. Drugs were mixed in the same syringe just prior to administration and given 0.2 mL per 100 g BW IM. Induction occurred within 5-10 minutes.
After sterile preparation and shaving of the right lower extremity, an open approach was made to the hip joint. The capsule was opened, and the right femoral head was dislocated from the acetabulum. The ligamentum teres divided, disrupting any blood supply from that source. The entire femoral neck was denuded of soft tissue by polishing with a vicryl suture. This disrupted the lateral epiphyseal artery and any other vessels supplying the head via the femoral neck.
Dual fluorescent labels were applied at weeks 4 and 5: at week 4 demeclocycline 30 mg/kg was administered intraperitoneally, and at week 5 calcein 20 mg/kg was administered intraperitoneally. One hour prior to culling 70 MBq Tc99 MDP was administered subcutaneously to allow bone scintigraphy to be performed on harvested specimens.
After culling, right and left proximal femora were harvested and fixed in 4% paraformaldehyde. Radiographs were taken in pairs on high quality film with a Faxitron Shielded Cabinet X-Ray System (Hewlett Packard, McMinnville, Oreg. X-ray images were digitised and analysed using Bioquant image analysis system (R&M Biometrics Inc., Nashville, Tenn.) connected to a digitizing tablet (GTCO CalComp, Inc., Columbia, Md.). Bone area, height and width of the femoral head were recorded and compared to the contralateral side. Scintigraphy scans were taken using 4 mm aperture pinholes. BMD and BMC were measured with a pDEXA Sabre scanner (Norland, Ft Atkinson Wis.).
Specimens were resin embedded and sectioned undecalcified. Coronal sections (6 microns) were cut through the femoral head. Sections were stained with von Kossa to assess trabecular bone volume and structure. Fluorescent microscopy was used on unstained sections to image the fluorescent labels and assess bone formation.

angiogenesis = conditions: in the dose range used in this study; cited from earlier work

Q: Which “callus formation, mineralisation and strength” value (distraction osteogenesis) does the source give for `O=P(O)(O)C(O)(Cn1ccnc1)P(=O)(O)O` [zoledronic acid, 1-hydroxy-2-[(1H-imidazol-1-yl)ethylidine] bisphosphonic acid] here?
A: increased callus formation, mineralisation and strength

Q: And the “revascularisation (bone scintigraphy, Tc99 MDP)” value ([1]; all cases, operated side versus non-operated side)?
A: complete revascularisation

Q: What about the “bone architecture (histology, von Kossa)” value ([1]; both treated groups) of the same compound?
A: preservation of bone architecture

Q: And the “bony architecture, morphologically (radiographs)” value ([1]; post treated group)?
A: well preserved

Q: And the femoral neck resorption ([1]; post treated group)?
A: partially resorbed

Q: And the “femoral heads, morphologically (radiographs)” value ([1]; pre and post group)?
A: almost completely preserved

Q: What about the “articular cartilage (toluidine blue)” value ([1]; pre and post op rats) of the same compound?
A: thick articular cartilage

Q: And the “bone formation (fluorescent labelling, weeks 4 and 5)” value ([1]; pre-post treated animals)?
A: definite but lesser amount of bone formation

Q: What about the epiphyseal destruction ([1]; treated groups, overall conclusion) of the same compound?
A: reduced epiphyseal destruction

Q: What about the effect on angiogenesis (angiogenesis) of the same compound?
A: inhibits angiogenesis
